Measured values published in publication PMC12109296.

Chains of the proteins cited; added tags and fusions are not shown.
UniProt Q9UPP1: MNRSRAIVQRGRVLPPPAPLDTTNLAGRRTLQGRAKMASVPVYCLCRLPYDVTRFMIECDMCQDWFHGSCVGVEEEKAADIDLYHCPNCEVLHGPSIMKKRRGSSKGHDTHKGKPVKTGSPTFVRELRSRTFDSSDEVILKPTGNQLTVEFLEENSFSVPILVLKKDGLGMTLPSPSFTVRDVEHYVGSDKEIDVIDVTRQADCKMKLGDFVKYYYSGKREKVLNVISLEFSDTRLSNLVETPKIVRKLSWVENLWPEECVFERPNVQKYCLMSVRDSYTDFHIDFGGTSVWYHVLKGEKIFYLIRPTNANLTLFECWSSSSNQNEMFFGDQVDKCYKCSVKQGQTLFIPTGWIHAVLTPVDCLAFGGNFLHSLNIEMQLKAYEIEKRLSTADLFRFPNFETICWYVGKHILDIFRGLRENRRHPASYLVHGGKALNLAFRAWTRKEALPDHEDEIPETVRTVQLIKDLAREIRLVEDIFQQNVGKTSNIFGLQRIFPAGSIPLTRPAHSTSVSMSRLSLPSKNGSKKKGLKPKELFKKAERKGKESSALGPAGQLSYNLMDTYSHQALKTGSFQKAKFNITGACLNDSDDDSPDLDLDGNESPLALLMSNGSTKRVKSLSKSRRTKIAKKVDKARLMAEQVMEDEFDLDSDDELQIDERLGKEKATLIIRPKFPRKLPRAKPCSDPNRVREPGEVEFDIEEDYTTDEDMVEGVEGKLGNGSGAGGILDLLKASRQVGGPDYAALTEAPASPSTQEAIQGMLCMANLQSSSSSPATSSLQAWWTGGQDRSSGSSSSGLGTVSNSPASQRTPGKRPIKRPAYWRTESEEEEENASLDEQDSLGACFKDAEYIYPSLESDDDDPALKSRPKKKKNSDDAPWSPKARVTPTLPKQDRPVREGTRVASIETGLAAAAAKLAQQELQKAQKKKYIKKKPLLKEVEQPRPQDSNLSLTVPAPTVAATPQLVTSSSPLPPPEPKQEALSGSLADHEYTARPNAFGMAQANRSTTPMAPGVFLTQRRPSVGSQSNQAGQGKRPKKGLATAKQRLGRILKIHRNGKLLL

The substances below were run against Flag-tagged PHF8 (PHD finger protein 8) (UniProt Q9UPP1) (assay: co-IP; Flag-PHF8 co-expressed with KDM2A or KDM2A constructs in 293T cells; lysates in IP buffer (0.1% Triton X-100, 300 mM NaCl, 300 mM sucrose, 1 mM MgCl2, 1 mM EGTA, 10 mM PIPES pH 7.0) precipitated with anti-Flag M2 agarose; Western blot with anti-KDM2A or anti-GFP; in Figure 4A cells with or without 2 mM 2DG for 2 h).

binding, binds:
KDM2A mutant lacking a PHD domain (from UniProt Q9Y2K7-1)
KDM2A mutant lacking an LRR domain (from UniProt Q9Y2K7-1)
KDM2A mutant lacking an F-box domain (from UniProt Q9Y2K7-1)

These are yes or no findings as the source states them, for the method shown. In cells and extracts the contact can be indirect. Binding can be weak; no strength is given.
